# Data as given in the supplement of paper PMC8728848.
# This is one part of the list.
# Columns and labels:
# Experiment in all cases: glycan array binding signal (z-score within array); higher = stronger binding
# Conditions in all cases: glycan notation: IUPAC condensed, linker removed
# [1] = molecular target: GlcNAc(b1-2)Gal(b1-3)GalNAc
# Outline: (§1)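 Negative Z-scores can be read as non-binding. The Z-score is calculated within each array and then averaged across arrays of one protein sequence at different concentrations or buffers and across linkers. Arrays, 3228 in all, were curated from the Consortium for Functional Glycomics database and kept only where the protein sequence was available.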
# [2] = molecular target: GlcNAc(b1-2)Man(a1-3)[GlcNAc(b1-2)Man(a1-6)]Man(b1-4)GlcNAc(b1-4)GlcNAc
# Outline: as §1
# [3] = molecular target: GlcNAc(b1-2)Man(a1-3)[GlcNAc(b1-2)Man(a1-6)]Man(b1-4)GlcNAc(b1-4)[Fuc(a1-6)]GlcNAc
# Outline: as §1
# [4] = molecular target: GlcNAc(b1-2)Man(a1-3)[GlcNAc(b1-4)][GlcNAc(b1-2)Man(a1-6)]Man(b1-4)GlcNAc(b1-4)GlcNAc
# Outline: as §1
# [5] = molecular target: GlcNAc(b1-2)Man(a1-3)[GlcNAc(b1-4)][GlcNAc(b1-2)Man(a1-6)]Man(b1-4)GlcNAc(b1-4)[Fuc(a1-6)]GlcNAc
# Outline: as §1
# [6] = molecular target: GlcNAc(b1-2)[GlcNAc(b1-4)]Man(a1-3)[GlcNAc(b1-2)Man(a1-6)]Man(b1-4)GlcNAc(b1-4)GlcNAc
# Outline: as §1
# [7] = molecular target: GlcNAc(b1-2)[GlcNAc(b1-4)]Man(a1-3)[GlcNAc(b1-4)][GlcNAc(b1-2)Man(a1-6)]Man(b1-4)GlcNAc(b1-4)GlcNAc
# Outline: as §1
# [8] = molecular target: GlcNAc(b1-2)[GlcNAc(b1-4)]Man(a1-3)[GlcNAc(b1-4)][GlcNAc(b1-2)[GlcNAc(b1-6)]Man(a1-6)]Man(b1-4)GlcNAc(b1-4)GlcNAc
# Outline: as §1
# [9] = molecular target: GlcNAc(b1-2)[GlcNAc(b1-4)]Man(a1-3)[GlcNAc(b1-4)][GlcNAc(b1-2)[GlcNAc(b1-6)]Man(a1-6)]Man(b1-4)GlcNAc(b1-4)[Fuc(a1-6)]GlcNAc
# Outline: as §1
# [10] = molecular target: GlcNAc(b1-2)[GlcNAc(b1-6)]Man(a1-6)[GlcNAc(b1-2)Man(a1-3)]Man(b1-4)GlcNAc(b1-4)GlcNAc
# Outline: as §1
# [11] = molecular target: GlcNAc(b1-2)[GlcNAc(b1-6)]Man(a1-6)[GlcNAc(b1-2)Man(a1-3)]Man(b1-4)GlcNAc(b1-4)[Fuc(a1-6)]GlcNAc
# Outline: as §1
# [12] = molecular target: GlcNAc(b1-2)[GlcNAc(b1-6)]Man(a1-6)[GlcNAc(b1-4)][GlcNAc(b1-2)Man(a1-3)]Man(b1-4)GlcNAc(b1-4)GlcNAc
# Outline: as §1
# GlcNAc(b1-3)Fuc = molecular target: GlcNAc(b1-3)Fuc
# Outline: as §1
# GlcNAc(b1-3)Gal = molecular target: GlcNAc(b1-3)Gal
# Outline: as §1
# [13] = molecular target: GlcNAc(b1-3)Gal(b1-3)GalNAc
# Outline: as §1
# GlcNAc(b1-3)Gal(b1-4)Glc = molecular target: GlcNAc(b1-3)Gal(b1-4)Glc
# Outline: as §1
# [14] = molecular target: GlcNAc(b1-3)Gal(b1-4)GlcNAc
# Outline: as §1
# [15] = molecular target: GlcNAc(b1-3)Gal(b1-4)GlcNAc(b1-2)Man(a1-3)[GlcNAc(b1-3)Gal(b1-4)GlcNAc(b1-2)Man(a1-6)]Man(b1-4)GlcNAc(b1-4)GlcNAc
# Outline: as §1
# [16] = molecular target: GlcNAc(b1-3)Gal(b1-4)GlcNAc(b1-2)Man(a1-3)[GlcNAc(b1-3)Gal(b1-4)GlcNAc(b1-2)Man(a1-6)]Man(b1-4)GlcNAc(b1-4)[Fuc(a1-6)]GlcNAc
# Outline: as §1
# [17] = molecular target: GlcNAc(b1-3)Gal(b1-4)GlcNAc(b1-2)[GlcNAc(b1-3)Gal(b1-4)GlcNAc(b1-6)]Man(a1-6)[GlcNAc(b1-3)Gal(b1-4)GlcNAc(b1-2)Man(a1-3)]Man(b1-4)GlcNAc(b1-4)GlcNAc
# Outline: as §1
# [18] = molecular target: GlcNAc(b1-3)Gal(b1-4)GlcNAc(b1-3)Gal(b1-4)GlcNAc
# Outline: as §1
# [19] = molecular target: GlcNAc(b1-3)Gal(b1-4)GlcNAc(b1-3)Gal(b1-4)GlcNAc(b1-2)Man(a1-3)[GlcNAc(b1-3)Gal(b1-4)GlcNAc(b1-3)Gal(b1-4)GlcNAc(b1-2)Man(a1-6)]Man(b1-4)GlcNAc(b1-4)GlcNAc
# Outline: as §1
# [20] = molecular target: GlcNAc(b1-3)Gal(b1-4)GlcNAc(b1-3)Gal(b1-4)GlcNAc(b1-2)Man(a1-3)[GlcNAc(b1-3)Gal(b1-4)GlcNAc(b1-3)Gal(b1-4)GlcNAc(b1-2)Man(a1-6)]Man(b1-4)GlcNAc(b1-4)[Fuc(a1-6)]GlcNAc
# Outline: as §1
# [21] = molecular target: GlcNAc(b1-3)Gal(b1-4)GlcNAc(b1-3)Gal(b1-4)GlcNAc(b1-2)[GlcNAc(b1-3)Gal(b1-4)GlcNAc(b1-3)Gal(b1-4)GlcNAc(b1-6)]Man(a1-6)[GlcNAc(b1-3)Gal(b1-4)GlcNAc(b1-3)Gal(b1-4)GlcNAc(b1-2)Man(a1-3)]Man(b1-4)GlcNAc(b1-4)[Fuc(a1-6)]GlcNAc
# Outline: as §1
# [22] = molecular target: GlcNAc(b1-3)Gal(b1-4)GlcNAc(b1-3)Gal(b1-4)GlcNAc(b1-3)Gal(b1-4)GlcNAc(b1-2)Man(a1-3)[GlcNAc(b1-3)Gal(b1-4)GlcNAc(b1-3)Gal(b1-4)GlcNAc(b1-3)Gal(b1-4)GlcNAc(b1-2)Man(a1-6)]Man(b1-4)GlcNAc(b1-4)GlcNAc
# Outline: as §1
# [23] = molecular target: GlcNAc(b1-3)Gal(b1-4)GlcNAc(b1-3)Gal(b1-4)GlcNAc(b1-3)Gal(b1-4)GlcNAc(b1-2)Man(a1-3)[GlcNAc(b1-3)Gal(b1-4)GlcNAc(b1-3)Gal(b1-4)GlcNAc(b1-3)Gal(b1-4)GlcNAc(b1-2)Man(a1-6)]Man(b1-4)GlcNAc(b1-4)[Fuc(a1-6)]GlcNAc
# Outline: as §1
# [24] = molecular target: GlcNAc(b1-3)Gal(b1-4)GlcNAc(b1-3)Gal(b1-4)GlcNAc(b1-3)Gal(b1-4)GlcNAc(b1-2)[GlcNAc(b1-3)Gal(b1-4)GlcNAc(b1-3)Gal(b1-4)GlcNAc(b1-3)Gal(b1-4)GlcNAc(b1-6)]Man(a1-6)[GlcNAc(b1-3)Gal(b1-4)GlcNAc(b1-3)Gal(b1-4)GlcNAc(b1-3)Gal(b1-4)GlcNAc(b1-2)Man(a1-3)]Man(b1-4)GlcNAc(b1-4)[Fuc(a1-6)]GlcNAc
# Outline: as §1
# [25] = molecular target: GlcNAc(b1-3)Gal(b1-4)GlcNAc(b1-3)Gal(b1-4)GlcNAc(b1-3)Gal(b1-4)GlcNAc(b1-3)Gal(b1-4)GlcNAc(b1-2)Man(a1-3)[GlcNAc(b1-3)Gal(b1-4)GlcNAc(b1-3)Gal(b1-4)GlcNAc(b1-3)Gal(b1-4)GlcNAc(b1-3)Gal(b1-4)GlcNAc(b1-2)Man(a1-6)]Man(b1-4)GlcNAc(b1-4)GlcNAc
# Outline: as §1
# [26] = molecular target: GlcNAc(b1-3)Gal(b1-4)GlcNAc(b1-3)Gal(b1-4)GlcNAc(b1-3)Gal(b1-4)GlcNAc(b1-3)Gal(b1-4)GlcNAc(b1-2)Man(a1-3)[GlcNAc(b1-3)Gal(b1-4)GlcNAc(b1-3)Gal(b1-4)GlcNAc(b1-3)Gal(b1-4)GlcNAc(b1-3)Gal(b1-4)GlcNAc(b1-2)Man(a1-6)]Man(b1-4)GlcNAc(b1-4)[Fuc(a1-6)]GlcNAc
# Outline: as §1
# [27] = molecular target: GlcNAc(b1-3)Gal(b1-4)GlcNAc(b1-3)Gal(b1-4)GlcNAc(b1-3)Gal(b1-4)GlcNAc(b1-3)Gal(b1-4)GlcNAc(b1-2)[GlcNAc(b1-3)Gal(b1-4)GlcNAc(b1-3)Gal(b1-4)GlcNAc(b1-3)Gal(b1-4)GlcNAc(b1-3)Gal(b1-4)GlcNAc(b1-6)]Man(a1-6)[GlcNAc(b1-3)Gal(b1-4)GlcNAc(b1-3)Gal(b1-4)GlcNAc(b1-3)Gal(b1-4)GlcNAc(b1-3)Gal(b1-4)GlcNAc(b1-2)Man(a1-3)]Man(b1-4)GlcNAc(b1-4)[Fuc(a1-6)]GlcNAc
# Outline: as §1
binder,measurement,setting,value
GS7807I-bvu-563-22-563 (Bacteroides vulgatus) (protein) IFSSCTDDFEKLNTSNIQVDPADLPFAAQCTEPMTYCYPPQQNMFQFWTNLTIDLYGGYFMTPNGNFTNGDMGENRGHSGGMYENYYLHIFNNTRRIIAQCDASGERGLSGVMRIVQAYGTLMTTDAYGPIPYSSILSGENEVYFEFDSQKDLYKAMLEDLSTAITDISAMGADEIAKLKSFDCWCNGDKDLWVKIANTMKLRMALRLSKRETEAGNAGMNLKAIATEAAQNTLATVNKDILIDKSLENEMWLMFNWGDCGFNANLVTIMSGTKDPRQPLYMTLNTGDIKNEAGTTTVAANSQYLGIRFASGLPAKPNSWGNFSGWIQGNNGSSYSMPLPIMKAAEAYFLLAEAKLRWDIGSESVKNLYENGIRVSMTNELAYRGAYAGIKEYPEGAVDAYINGTSTQIDYTDPIKAELSTPAVNKLSVKWDESASNEEKLERIITQKWLALFPLSTEGWAEQRRTGYPRFFPAFVNESNGAVNTEEGVRRVIYSSQAYDANAKGVEGGIKLLDEENSSKFGISGDKGGTHLWWDNADKGNF,glycan array binding signal (z-score),[1],0.388
same,glycan array binding signal (z-score),[2],-0.694
same,glycan array binding signal (z-score),[3],0.137
same,glycan array binding signal (z-score),[4],-0.554
same,glycan array binding signal (z-score),[5],-0.51
same,glycan array binding signal (z-score),[6],-1.46
same,glycan array binding signal (z-score),[7],-0.633
same,glycan array binding signal (z-score),[8],0.285
same,glycan array binding signal (z-score),[9],-1.04
same,glycan array binding signal (z-score),[10],-0.866
same,glycan array binding signal (z-score),[11],2.33
same,glycan array binding signal (z-score),[12],-0.587
same,glycan array binding signal (z-score),GlcNAc(b1-3)Fuc,-0.138
same,glycan array binding signal (z-score),GlcNAc(b1-3)Gal,-1.09
same,glycan array binding signal (z-score),[13],0.216
same,glycan array binding signal (z-score),GlcNAc(b1-3)Gal(b1-4)Glc,-1.17
same,glycan array binding signal (z-score),[14],0.136
same,glycan array binding signal (z-score),[15],-0.349
same,glycan array binding signal (z-score),[16],0.728
same,glycan array binding signal (z-score),[17],0.01
same,glycan array binding signal (z-score),[18],-0.488
same,glycan array binding signal (z-score),[19],2.79
same,glycan array binding signal (z-score),[20],0.107
same,glycan array binding signal (z-score),[21],1.6
same,glycan array binding signal (z-score),[22],0.54
same,glycan array binding signal (z-score),[23],-0.035
same,glycan array binding signal (z-score),[24],3.79
same,glycan array binding signal (z-score),[25],0.287
same,glycan array binding signal (z-score),[26],-0.08
same,glycan array binding signal (z-score),[27],2.23

# Another view of some results above:
binder | measurement | setting | value
GS7807I-bvu-563-22-563 (Bacteroides vulgatus) (protein) IFSSCTDDFEKLNTSNIQVDPADLPFAAQCTEPMTYCYPPQQNMFQFWTNLTIDLYGGYFMTPNGNFTNGDMGENRGHSGGMYENYYLHIFNNTRRIIAQCDASGERGLSGVMRIVQAYGTLMTTDAYGPIPYSSILSGENEVYFEFDSQKDLYKAMLEDLSTAITDISAMGADEIAKLKSFDCWCNGDKDLWVKIANTMKLRMALRLSKRETEAGNAGMNLKAIATEAAQNTLATVNKDILIDKSLENEMWLMFNWGDCGFNANLVTIMSGTKDPRQPLYMTLNTGDIKNEAGTTTVAANSQYLGIRFASGLPAKPNSWGNFSGWIQGNNGSSYSMPLPIMKAAEAYFLLAEAKLRWDIGSESVKNLYENGIRVSMTNELAYRGAYAGIKEYPEGAVDAYINGTSTQIDYTDPIKAELSTPAVNKLSVKWDESASNEEKLERIITQKWLALFPLSTEGWAEQRRTGYPRFFPAFVNESNGAVNTEEGVRRVIYSSQAYDANAKGVEGGIKLLDEENSSKFGISGDKGGTHLWWDNADKGNF | glycan array binding signal (z-score) | GlcNAc(b1-3)Fuc | -0.138
same | glycan array binding signal (z-score) | GlcNAc(b1-3)Gal | -1.09
